This note sets out measurements from patent US10508147B2, “Anti-nodal antibodies and methods of using same” (ANN AND ROBERT H. LURIE CHILDREN'S HOSPITAL OF CHICAGO, priority 2014, dated 2019).

The test system of the data set is 3D1 mAb. Description: ELISA epitope mapping and specificity assay of coated peptides probed with 3D1. The note with it: epitope mapping by ELISA and SPR. The class given is binding, mouse. How it is done: Residues underlying the binding between 3D1 and Nodal were investigated by epitope mapping using a set of Nodal synthetic peptides (See FIG. 9). […] Peptides were immobilized at 1 μg/mL and probed with 3D1 at […]. Data were normalized to the binding of the peptide hNODAL (44-69) wild-type (WT). […] Most interactions were established with C43, P46, V47, E49, E50. The effect of Y58 can be on the conformation of the peptide.
Peptides used for the epitope mapping and for the specificity assay of the 3D1 mAb were coated at 1.0 μg/mL diluted in PBS; 3D1 mAb, dissolved in PBS, was used as primary antibody at 1.0 μg/mL.
Background: In an ELISA, binding on a coated surface is turned into a signal by an enzyme label.

In the case of “3D1: mouse monoclonal anti-Nodal antibody raised against hNodal(44-67); light chain SEQ ID NO:1, heavy chains SEQ ID NO:2 and 3”, the “epitope region of Nodal recognized” value is given as “residues encompassing the 43-56 region”. In addition, the “epitope region of Nodal recognized” value (listed as 3D1 mAb) was “region (44-56) contains the epitope”.
